Measured values from patent US20080253962A1 (Bristol-Myers Squibb, published 2008).
These are yes or no findings as the source states them, for the method shown. Some results given as binding are weak or reduced against the parent protein; the word gives no strength.

What was measured:
[1] = molecular target: T1, IRTA4 protein on the surface of the B cell tumor line Daudi (human) (UniProt Q96LA5); experiment: flow cytometry on Daudi cells (FIG. 8B)
T1 sequence: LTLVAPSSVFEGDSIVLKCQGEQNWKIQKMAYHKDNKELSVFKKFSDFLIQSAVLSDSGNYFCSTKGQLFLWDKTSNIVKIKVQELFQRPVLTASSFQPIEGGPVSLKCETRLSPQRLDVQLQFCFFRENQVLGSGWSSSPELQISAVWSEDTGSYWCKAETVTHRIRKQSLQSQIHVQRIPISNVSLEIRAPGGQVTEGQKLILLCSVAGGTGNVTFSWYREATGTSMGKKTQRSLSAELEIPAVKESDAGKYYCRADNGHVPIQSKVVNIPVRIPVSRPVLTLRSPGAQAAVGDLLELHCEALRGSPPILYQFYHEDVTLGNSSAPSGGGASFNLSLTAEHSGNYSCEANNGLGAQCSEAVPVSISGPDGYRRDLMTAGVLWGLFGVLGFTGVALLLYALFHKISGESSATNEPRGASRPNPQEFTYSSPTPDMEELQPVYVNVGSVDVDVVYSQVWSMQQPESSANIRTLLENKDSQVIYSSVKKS

[2] = molecular target: T1, IRTA4 protein on the surface of the B cell tumor line Daudi (human); experiment: flow cytometry on Daudi cells, labelled anti-human secondary antibody
[3] = molecular target: T1, IRTA4 protein on the surface of the B cell tumor line Daudi (human); experiment: flow cytometry on Daudi cells, phycoerythrin anti-human secondary antibody

binding [1]: binds | binding [2]: binds | binding [3]: binds
B1: 13B1 human monoclonal antibody (antibody, V domains shown)
VH: QVQLVQSGAEVKKPGASVKVSCKASGYNFNSYDISWVRQAAGQGLEWMGWMNPNSGYTSYAQKFQGRVTMTWNTSISTAYMELSSLRSEDSAVYYCAREGIVGAIGWFDPWGQGTLVTVSS
VL: DIQMTQSPSSVSASVGDRVTITCRASQGISSWLAWYQHKPGKAPKLLIYAASSLQSGVPSRFSGSGSGTDFTLTISSLQPEDFATYYCQQANSFPLTFGGGTKVEIK
notes: Hybridoma-derived fully human IgG with kappa light chain from KM mice; also called anti-IRTA4 HuMAb 13B1
